Data from the odorant receptor screen of Mainland et al. (2015).
“And” between values parts separate entries of the source, which are not always exact repeats. Identical values can stand only once. Some of the results follow. Single wells; the ratio to wells without odorant was worked out here, and repeats agree poorly.

Experiments:
Experiment in all cases: odorant receptor activation (CRE luciferase / Renilla) (fold of no-odor wells); higher = more activation
Settings in all cases: 100 µM
[1] = test system: OR8B3 H20R/Q24R/V34I/M114I clone 1727
OR8B4 E22G clone 1227 = test system: OR8B4 E22G clone 1227
[2] = test system: OR8B4 Y131H/C140F/C178R clone 1440
OR8B8 clone 1226 = test system: OR8B8 clone 1226
OR8B8 clone 1504 = test system: OR8B8 clone 1504
OR8D1 clone 1142 = test system: OR8D1 clone 1142
OR8D2 clone 1179 = test system: OR8D2 clone 1179
[3] = test system: OR8D4 C120Y/R133K/F200L/L283P/R298K clone 1072
OR8G1 clone 1395 = test system: OR8G1 clone 1395
OR8G5 clone 1323 = test system: OR8G5 clone 1323
OR8G5 clone 1493 = test system: OR8G5 clone 1493
OR8H1 clone 1388 = test system: OR8H1 clone 1388
[4] = test system: OR8H2 A105V/I154M/V158L/Y169C/D170Y/Y259H/V284M clone 1214
OR8H3 P137S clone 1215 = test system: OR8H3 P137S clone 1215
OR8I2 clone 1213 = test system: OR8I2 clone 1213
OR8J1 Y120C clone 1500 = test system: OR8J1 Y120C clone 1500
OR8J3 clone 1149 = test system: OR8J3 clone 1149
OR8K1 clone 1431 = test system: OR8K1 clone 1431
OR8K3 L122R clone 1195 = test system: OR8K3 L122R clone 1195
OR8K5 clone 1150 = test system: OR8K5 clone 1150

Structure (SMILES) | odorant receptor activation [1] | odorant receptor activation (OR8B4 E22G clone 1227) | odorant receptor activation [2] | odorant receptor activation (OR8B8 clone 1226) | odorant receptor activation (OR8B8 clone 1504) | odorant receptor activation (OR8D1 clone 1142) | odorant receptor activation (OR8D2 clone 1179) | odorant receptor activation [3] | odorant receptor activation (OR8G1 clone 1395) | odorant receptor activation (OR8G5 clone 1323) | odorant receptor activation (OR8G5 clone 1493) | odorant receptor activation (OR8H1 clone 1388) | odorant receptor activation [4] | odorant receptor activation (OR8H3 P137S clone 1215) | odorant receptor activation (OR8I2 clone 1213) | odorant receptor activation (OR8J1 Y120C clone 1500) | odorant receptor activation (OR8J3 clone 1149) | odorant receptor activation (OR8K1 clone 1431) | odorant receptor activation (OR8K3 L122R clone 1195) | odorant receptor activation (OR8K5 clone 1150)
COc1cc(C)ccc1O [2-methoxy-4-methylphenol] | 0.563 | 1.22 | 1.02 | 1.13 | 0.901 | 0.971 | 0.689 | 1.92 | 1.68 | 1.1 | 0.867 | 1 | 0.766 | 0.727 | 1.19 | 0.647 | 1.3 | 1 | 1 | 1.19
CCCCCC(C)=O [2-heptanone] |  | 0.826 | 0.924 | 1.11 | 1.04 | 1.36 | 0.986 | 0.909 | 0.856 | 2.37 | 1.35 and 0.545 | 1.35 | 1.21 | 1.03 | 1.15 | 0.907 and 0.766 | 1.63 | 1.13 | 0.84 | 1.15
CC12C=CCC1C1CCC3=CC(=O)CCC3(C)C1CC2 (stereo not drawn) [androstadienone] |  | 1.18 | 0.834 | 0.93 | 1.07 and 1.22 | 1.29 | 1.27 | 1.76 | 0.842 | 0.9 and 1.08 | 1.42 and 1.39 | 0.818 | 1.18 | 0.75 | 1.19 | 0.863 and 1.32 | 0.981 | 0.981 | 0.916 | 1.09
O=C1CCCCCCCCCCCC(=O)OCCO1 [ethylene brassylate] | 0.824 | 1.79 | 2.14 | 1.51 | 1.23 | 2.36 | 1.51 | 1.72 | 1.66 | 1.62 | 1.18 | 1.55 | 1.56 | 1.19 | 1.63 | 1.2 | 1.44 | 1.67 | 2.1 | 1.75
CC1CCC(C(C)C)C(O)C1 (single isomer, unassigned; (-)) [(-)-menthol] | 0.114 | 0.983 | 0.677 | 0.99 | 3.34 | 0.808 | 0.941 | 2.36 | 1.26 | 0.693 | 3.54 | 1.4 | 0.875 | 0.941 | 0.949 | 3.7 | 1.17 | 0.883 | 2.17 | 1.12
CC12C=CCC1C1CCC3CC(=O)CCC3(C)C1CC2 (stereo not drawn) [androstenone] |  | 5.7 | 0.814 | 7.7 | 1.19 | 6.61 | 5.35 | 1.18 | 1.24 | 1.13 | 1.09 | 1.38 | 5.91 | 4.4 | 5.03 | 0.776 | 10.1 | 0.731 | 4.21 | 4.49
C=CCSCC=C [diallyl sulfide] | 0.531 | 1.04 | 1.3 | 0.971 | 1.26 | 1.08 | 1.24 | 0.977 | 1.34 | 1.1 | 1.1 | 0.956 | 1.27 | 1.07 | 0.949 | 1.45 | 0.968 | 1.36 | 1 | 1.1
C=CC(C)(O)CCC=C(C)C (stereo not drawn) [linalool] | 0.846 | 1.12 | 1.15 | 1.15 | 0.806 | 1.03 | 0.885 | 1.09 | 1.02 | 0.972 | 0.918 | 0.893 | 1.23 | 1.05 | 1.33 | 1.05 | 1.25 | 0.961 | 1.1 | 0.995
CC(C)CCC(=O)O [4-methylvaleric acid] | 0.739 | 1.6 | 0.737 | 1.05 | 1.01 | 0.981 | 0.754 | 1.4 | 1.18 | 1.04 | 0.976 | 1.11 | 0.686 | 0.69 | 0.919 | 0.802 | 1.06 | 0.674 | 1.19 | 0.88
CC(=O)OCC=C(C)CCC=C(C)C [geranyl acetate] | 1.24 | 0.912 | 1.1 | 1 | 0.919 and 1.39 | 0.995 | 1.08 | 1.68 | 0.873 | 0.701 and 1.06 | 1.14 and 1.37 | 0.903 | 0.96 | 0.911 | 1.33 | 0.78 and 1.04 | 0.962 | 1 | 0.826 | 1.32
CCCCCCCCC=O [nonyl aldehyde] | 1 | 1.43 | 0.947 | 1.11 | 1.07 | 1.04 | 1.12 | 0.953 | 1.14 | 0.833 | 0.814 | 1.05 | 1.19 | 1.12 | 1.23 | 0.881 | 0.947 | 1.15 | 1.05 | 0.844
CC12CCC(CC1)C(C)(C)O2 [cineole] | 0.659 | 0.908 | 0.112 | 0.759 | 0.849 | 0.772 | 0.809 | 0.867 | 0.213 | 0.961 | 0.888 | 0.187 | 0.819 | 0.817 | 0.755 | 1.01 | 0.761 | 0.122 | 1.02 | 0.644
CC12CCC(C1)C(C)(C)C2=O (stereo not drawn) [fenchone] | 0.66 | 0.996 | 1.06 | 0.797 | 1.05 | 1.23 | 0.848 | 1.08 | 0.88 | 1.02 | 0.95 | 0.795 | 1.13 | 0.957 | 1.18 | 1.43 | 0.927 | 0.998 | 1.4 | 0.891
CCCC(=O)O [butyric acid] | 0.51 | 1.04 | 0.131 | 0.884 | 1.22 | 1.14 | 1.14 | 1 | 0.222 | 0.832 | 1 | 0.206 | 1.07 | 1.07 | 0.879 | 1.47 | 1.13 | 0.129 | 1.24 | 0.874
CC(=O)c1ccccc1 [acetophenone] |  | 1.04 | 1.09 | 1.01 | 0.783 and 0.94 | 1.76 | 0.967 | 1.24 | 1.03 | 0.892 | 1.14 and 0.654 | 1.09 | 1.15 | 1.27 | 1.26 | 1 and 0.712 | 1.34 | 1.14 | 0.88 | 1.13
CCC1(O)C2(C)CCC(C2)C1(C)C (stereo not drawn) [2-ethylfenchol] | 0.401 | 1.19 | 0.701 | 1.44 | 1.19 | 0.683 | 0.935 | 2.39 | 0.746 | 0.742 | 1.25 | 1.41 | 0.873 | 0.592 | 1.02 | 0.911 | 1.12 | 0.961 | 0.791 | 1.01
CC1=NC(C)SC1C (stereo not drawn) |  | 0.913 | 1.09 | 1.01 | 1.28 and 0.971 | 0.688 | 0.797 | 1.12 | 1.09 | 1.06 | 1.14 and 0.922 | 1.48 | 1 | 1.06 | 1.15 | 1.18 and 1.06 | 0.887 | 1.22 | 0.96 | 0.799
CC=Cc1ccc(O)c(OC)c1 [isoeugenol] | 3.85 | 0.995 | 1.36 | 0.98 | 1.42 and 2.19 | 1.01 | 1.13 | 3.4 | 1.24 | 0.945 and 1.25 | 0.919 and 1.57 | 1.3 | 1.2 | 1.09 | 1.89 | 1.76 and 2.21 | 0.866 | 1.45 | 1.05 | 1.32
CC(C)C(=O)O [isobutyric acid] | 0.969 | 1.05 | 0.685 | 0.741 | 0.923 and 0.883 | 1.21 | 1.09 | 1.09 | 0.763 | 0.793 and 0.873 | 1.03 and 1.16 | 0.67 | 1.37 | 1.06 | 1.35 | 0.919 and 0.931 | 0.956 | 0.761 | 0.884 | 1.11
CCCCCCC=O [heptaldehyde] | 0.92 |  | 0.923 and 0.948 | 0.414 and 0.821 |  |  |  | 2.5 and 2.55 | 1.09 and 0.763 | 0.688 and 0.755 and 0.984 |  | 1.45 and 0.532 | 0.487 and 1.16 | 0.433 and 0.88 |  |  | 0.376 and 0.899 | 1.39 and 0.845 |  | 0.427 and 1.11
c1cnccn1 [pyrazine] | 1.01 | 1.23 | 1.06 | 0.944 | 0.922 | 0.873 | 1.01 | 0.988 | 1.22 | 0.793 | 0.722 | 1.22 | 0.938 | 1.16 | 0.939 | 0.734 | 1.24 | 1.24 | 0.787 | 0.997
COC(=O)c1ccccc1 [methyl benzoate] |  | 0.871 | 0.81 | 0.625 | 0.572 and 1.2 | 1.01 | 0.94 | 2.19 | 1.02 | 1.09 | 1.34 and 0.853 | 1.11 | 0.976 | 0.942 | 0.931 | 1.09 and 1.04 | 1.18 | 0.981 | 0.923 | 1.17
CC(=O)C(C)=O [diacetyl] | 0.361 | 1.23 | 1.52 | 1.24 | 1.23 | 1.45 | 0.935 | 1.16 | 1.55 | 0.974 | 1.14 | 1.21 | 1.17 | 1.16 | 1.12 | 1.42 | 0.979 | 1.38 | 1.03 | 1.15
CC(C)(C)c1ccc(CCC=O)cc1 [bourgeonal] |  | 0.598 | 0.1 | 0.545 | 0.84 | 0.797 | 0.741 | 0.762 | 0.175 | 0.626 | 1.04 | 0.132 | 0.53 | 0.694 | 0.633 | 1.11 | 0.813 | 0.118 | 0.787 | 0.618
O=C1CCCCC1 [Cyclohexanone] |  | 0.641 | 0.667 | 0.641 | 0.427 and 1.19 | 1.04 | 0.671 | 1.21 | 0.946 | 0.638 | 1.08 and 0.811 | 1.25 | 0.982 | 0.771 | 0.89 | 1.12 and 0.98 | 0.711 | 0.731 | 0.796 | 0.528
O=CCc1ccccc1 [phenyl acetaldehyde] | 1.91 | 1.46 | 1.42 | 0.927 | 1.2 | 1.43 | 1.26 | 1.43 | 1.8 | 1.07 | 0.947 | 1.63 | 1.26 | 1.47 | 1.04 | 1.09 | 1.92 | 1.4 | 0.986 | 1.08
CC1COCc2cc3c(cc21)C(C)(C)C(C)C3(C)C (stereo not drawn) [galaxolide] | 0.341 and 0.544 | 0.905 | 2.93 | 0.663 | 7.02 and 4.04 | 1.04 | 0.868 | 4.27 | 2.4 | 0.873 and 1.13 |  | 3.85 | 0.952 | 0.836 | 3.6 | 6.91 and 3.85 | 0.932 | 3.29 | 0.764 | 3.58
CCCCCCCCOC(C)=O [octyl acetate] | 0.778 | 1.24 | 0.96 | 1.14 | 0.772 | 0.925 | 1.01 | 0.928 | 0.796 | 0.972 | 1.19 | 1.08 | 1.2 | 1.26 | 1.27 | 0.873 | 1.06 | 1.11 | 1.12 | 1.08
